Results on 6 molecules are retold here after patent US20030162221A1.

Protein sequences, listed by entry. Tags and fused reporters are not part of them.
UniProt P22579: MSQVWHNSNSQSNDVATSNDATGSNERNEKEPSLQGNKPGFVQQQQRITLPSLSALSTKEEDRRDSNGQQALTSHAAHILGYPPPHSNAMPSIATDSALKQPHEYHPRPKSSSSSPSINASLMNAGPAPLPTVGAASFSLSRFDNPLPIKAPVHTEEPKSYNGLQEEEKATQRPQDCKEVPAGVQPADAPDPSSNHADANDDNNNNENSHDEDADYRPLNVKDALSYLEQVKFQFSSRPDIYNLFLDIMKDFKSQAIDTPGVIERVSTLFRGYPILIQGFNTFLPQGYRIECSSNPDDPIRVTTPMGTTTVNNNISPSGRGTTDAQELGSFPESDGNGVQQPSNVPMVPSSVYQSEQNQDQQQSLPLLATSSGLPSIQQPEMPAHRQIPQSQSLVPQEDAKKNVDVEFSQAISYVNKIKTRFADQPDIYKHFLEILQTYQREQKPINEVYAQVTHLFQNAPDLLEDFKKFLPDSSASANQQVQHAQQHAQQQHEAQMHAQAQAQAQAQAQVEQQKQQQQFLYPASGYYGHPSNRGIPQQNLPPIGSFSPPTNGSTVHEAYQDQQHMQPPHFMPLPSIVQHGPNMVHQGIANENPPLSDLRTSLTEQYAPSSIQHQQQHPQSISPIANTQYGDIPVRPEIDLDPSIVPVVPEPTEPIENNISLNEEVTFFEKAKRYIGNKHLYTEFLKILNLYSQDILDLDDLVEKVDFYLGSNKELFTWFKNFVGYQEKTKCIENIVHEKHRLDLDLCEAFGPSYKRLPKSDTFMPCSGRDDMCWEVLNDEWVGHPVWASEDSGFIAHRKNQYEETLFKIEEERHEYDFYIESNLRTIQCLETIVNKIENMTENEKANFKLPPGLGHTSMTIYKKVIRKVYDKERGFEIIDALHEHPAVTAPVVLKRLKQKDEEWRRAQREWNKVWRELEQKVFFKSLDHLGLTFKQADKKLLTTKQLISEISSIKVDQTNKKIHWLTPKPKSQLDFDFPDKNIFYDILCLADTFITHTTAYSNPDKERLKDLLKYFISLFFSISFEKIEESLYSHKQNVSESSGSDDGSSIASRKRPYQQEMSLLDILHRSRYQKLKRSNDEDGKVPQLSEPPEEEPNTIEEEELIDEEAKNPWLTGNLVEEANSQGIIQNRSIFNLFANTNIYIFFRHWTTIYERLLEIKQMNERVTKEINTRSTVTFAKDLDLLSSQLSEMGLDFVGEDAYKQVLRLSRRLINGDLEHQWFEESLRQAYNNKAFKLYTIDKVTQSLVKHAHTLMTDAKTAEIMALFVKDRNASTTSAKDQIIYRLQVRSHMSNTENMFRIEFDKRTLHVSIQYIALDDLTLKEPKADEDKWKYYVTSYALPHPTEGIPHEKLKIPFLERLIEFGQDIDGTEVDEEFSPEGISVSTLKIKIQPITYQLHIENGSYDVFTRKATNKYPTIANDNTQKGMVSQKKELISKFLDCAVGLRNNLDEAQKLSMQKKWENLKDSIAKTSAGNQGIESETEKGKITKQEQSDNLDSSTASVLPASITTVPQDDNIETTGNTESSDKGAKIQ

Results are given in words; binding and its absence hold for the method and conditions named. In cells and extracts the contact can be indirect. Some results given as binding are weak or reduced against the parent protein; the word gives no strength. For part of these data: Tags and fused reporters may be left off the sequences shown.

Test [1] addresses T1, Mob1 (Saccharomyces cerevisiae) (UniProt P40484).
T1 sequence (looked up): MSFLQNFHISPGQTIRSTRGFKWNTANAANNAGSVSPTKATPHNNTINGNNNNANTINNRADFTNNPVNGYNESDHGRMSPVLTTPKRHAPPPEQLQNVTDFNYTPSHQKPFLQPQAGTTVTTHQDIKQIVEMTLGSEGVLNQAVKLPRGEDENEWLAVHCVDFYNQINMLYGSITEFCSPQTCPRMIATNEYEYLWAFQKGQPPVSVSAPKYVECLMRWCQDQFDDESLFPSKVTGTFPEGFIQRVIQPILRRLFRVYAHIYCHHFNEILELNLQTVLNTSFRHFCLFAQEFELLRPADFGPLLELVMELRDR
Kind of test: anti-FLAG co-IP, LC-MS/MS.

Test [2] concerns the target T2, Rfc4 (Saccharomyces cerevisiae) (UniProt P40339).
T2 sequence (looked up): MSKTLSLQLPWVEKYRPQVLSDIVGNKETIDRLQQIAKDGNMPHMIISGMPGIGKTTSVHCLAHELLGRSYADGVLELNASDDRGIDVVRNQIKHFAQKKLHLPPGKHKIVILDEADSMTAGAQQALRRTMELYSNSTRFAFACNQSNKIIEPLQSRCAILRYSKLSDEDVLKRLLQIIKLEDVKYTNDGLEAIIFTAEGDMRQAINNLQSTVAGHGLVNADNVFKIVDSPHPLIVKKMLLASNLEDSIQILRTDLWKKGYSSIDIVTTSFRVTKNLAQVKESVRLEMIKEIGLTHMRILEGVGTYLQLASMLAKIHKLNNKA
Kind of test: anti-FLAG co-IP, LC-MS/MS.

Test [3] has as its target T3, Rfc5 (Saccharomyces cerevisiae) (UniProt P38251).
T3 sequence (looked up): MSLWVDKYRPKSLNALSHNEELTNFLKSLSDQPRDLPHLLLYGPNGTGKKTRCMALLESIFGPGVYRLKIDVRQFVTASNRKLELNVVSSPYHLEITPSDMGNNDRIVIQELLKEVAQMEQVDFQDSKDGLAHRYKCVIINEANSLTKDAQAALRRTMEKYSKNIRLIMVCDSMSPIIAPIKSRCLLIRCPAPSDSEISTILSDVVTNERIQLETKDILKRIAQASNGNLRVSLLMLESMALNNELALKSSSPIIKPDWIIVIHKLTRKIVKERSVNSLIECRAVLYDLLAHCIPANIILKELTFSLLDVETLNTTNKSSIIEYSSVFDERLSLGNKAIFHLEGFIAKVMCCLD
Kind of test: anti-FLAG co-IP, LC-MS/MS.

Test [4] deals with T2, Rfc4 (Saccharomyces cerevisiae). Kind of test: anti-FLAG co-IP, LC-MS/MS; pair by Table 2.
Test [5] deals with T3, Rfc5 (Saccharomyces cerevisiae). Kind of test: anti-FLAG co-IP, LC-MS/MS; pair by Table 2.
For test [6], the target named is Sin3 (Saccharomyces cerevisiae) (UniProt P22579). Description: anti-FLAG co-IP, LC-MS/MS.
For test [7], the target named is T4, Kss1 (Saccharomyces cerevisiae) (UniProt P14681).
T4 sequence (looked up): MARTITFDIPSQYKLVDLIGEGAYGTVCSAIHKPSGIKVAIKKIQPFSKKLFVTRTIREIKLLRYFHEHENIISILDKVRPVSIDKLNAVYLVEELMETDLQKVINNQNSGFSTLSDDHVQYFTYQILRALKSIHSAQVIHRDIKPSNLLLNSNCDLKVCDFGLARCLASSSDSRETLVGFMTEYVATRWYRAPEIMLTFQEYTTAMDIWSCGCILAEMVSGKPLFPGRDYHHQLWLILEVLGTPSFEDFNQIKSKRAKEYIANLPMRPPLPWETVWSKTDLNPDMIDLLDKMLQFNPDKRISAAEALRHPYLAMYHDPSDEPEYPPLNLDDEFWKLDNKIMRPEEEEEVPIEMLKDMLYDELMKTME
Description: anti-FLAG co-IP, LC-MS/MS.

For test [8], the target named is T5, Rfc3 (Saccharomyces cerevisiae) (UniProt P38629).
T5 sequence (looked up): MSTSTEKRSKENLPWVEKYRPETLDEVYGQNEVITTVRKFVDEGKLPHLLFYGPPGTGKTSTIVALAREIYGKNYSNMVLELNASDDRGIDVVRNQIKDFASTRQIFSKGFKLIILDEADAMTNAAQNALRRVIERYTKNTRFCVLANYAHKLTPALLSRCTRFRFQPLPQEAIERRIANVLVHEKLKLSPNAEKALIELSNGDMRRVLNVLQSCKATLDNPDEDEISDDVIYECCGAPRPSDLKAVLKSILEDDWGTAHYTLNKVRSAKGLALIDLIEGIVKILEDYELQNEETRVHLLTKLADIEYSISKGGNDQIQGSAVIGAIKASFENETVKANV
Kind of test: anti-FLAG co-IP, LC-MS/MS.

In test [9] the target is T5, Rfc3 (Saccharomyces cerevisiae). Kind of test: anti-FLAG co-IP, LC-MS/MS; pair by Table 2.

B1: Dbf20 (protein, Saccharomyces cerevisiae, UniProt P32328 1-564, looked up)
chain: MFSRSDREVDDLAGNMSHLGFYDLNIPKPTSPQAQYRPARKSENGRLTPGLPRSYKPCDSDDQDTFKNRISLNHSPKKLPKDFHERASQSKTQRVVNVCQLYFLDYYCDMFDYVISRRQRTKQVLRYLEQQRSVKNVSNKVLNEEWALYLQREHEVLRKRRLKPKHKDFQILTQVGQGGYGQVYLAKKKDSDEICALKILNKKLLFKLNETNHVLTERDILTTTRSDWLVKLLYAFQDPESLYLAMEFVPGGDFRTLLINTRILKSGHARFYISEMFCAVNALHELGYTHRDLKPENFLIDATGHIKLTDFGLAAGTVSNERIESMKIRLEEVKNLEFPAFTERSIEDRRKIYHNMRKTEINYANSMVGSPDYMALEVLEGKKYDFTVDYWSLGCMLFESLVGYTPFSGSSTNETYENLRYWKKTLRRPRTEDRRAAFSDRTWDLITRLIADPINRVRSFEQVRKMSYFAEINFETLRTSSPPFIPQLDDETDAGYFDDFTNEEDMAKYADVFKRQNKLSAMVDDSAVDSKLVGFTFRHRDGKQGSSGILYNGSEHSDPFSTFY
Turning to B1, in [1], the binding entry is “binds”.

B2: Rfc3 (protein, Saccharomyces cerevisiae, UniProt P38629 1-340, looked up)
chain: T5 sequence (looked up)
As for B2, the binding entry in [2], in test [3], in [4] and in test [5] was “binds” throughout.

B3: Dbf2 (protein, Saccharomyces cerevisiae, UniProt P22204 1-572, looked up)
chain: MLSKSEKNVDLLAGNMSNLSFDGHGTPGGTGLFPNQNITKRRTRPAGINDSPSPVKPSFFPYEDTSNMDIDEVSQPDMDVSNSPKKLPPKFYERATSNKTQRVVSVCKMYFLEHYCDMFDYVISRRQRTKQVLEYLQQQSQLPNSDQIKLNEEWSSYLQREHQVLRKRRLKPKNRDFEMITQVGQGGYGQVYLARKKDTKEVCALKILNKKLLFKLNETKHVLTERDILTTTRSEWLVKLLYAFQDLQSLYLAMEFVPGGDFRTLLINTRCLKSGHARFYISEMFCAVNALHDLGYTHRDLKPENFLIDAKGHIKLTDFGLAAGTISNERIESMKIRLEKIKDLEFPAFTEKSIEDRRKMYNQLREKEINYANSMVGSPDYMALEVLEGKKYDFTVDYWSLGCMLFESLVGYTPFSGSSTNETYDNLRRWKQTLRRPRQSDGRAAFSDRTWDLITRLIADPINRLRSFEHVKRMSYFADINFSTLRSMIPPFTPQLDSETDAGYFDDFTSEADMAKYADVFKRQDKLTAMVDDSAVSSKLVGFTFRHRNGKQGSSGILFNGLEHSDPFSTFY
Take B3: in test [1], the binding result is “binds”.

B4: Fkh2 (protein, Saccharomyces cerevisiae, UniProt P41813 1-862, looked up)
chain: MSSSNFNEMNELNMTQTNYGSTKYTAQHHQGVINAIISSLTAPDQPTTVSLQYSNDKNMATEIQAYAKLSGPNWTYYVKDLEVSIGRNTDPLNSALQENSDGVKNSYRVNIDLGPAKVVSRKHAIIKYNMNIGGWELHILGRNGAKVNFQRTHNGPNNPPIRLSSGTLLDIGGTQMMFILPDSDPVVAPICIEHLMPNLINMFGLEGNNNPLLRDIIKQSNYAKQRQLTSNQQIKGFKLYGSGGNAPFGSGANLGPSEQGIFNNNNNSKNKNGYFTSINPNYTASTTTSNTINPQAASPQGPPNTIIAANFVDSYKSSNAYPQALDFTSDLSHDENRNVKPPHSYATMITQAILSSPEGVISLADIYKYISSNYAYYRFAKSGWQNSIRHNLSLNKAFEKVPRRPNEPGKGMKWRISESYQQEFLNKWNTGKVGKIRRGSSVARQLQLHMAKFNSLPMEMDYRLSLNMAQPPKRQLQSHNVLEPSNNNIIEGFVQHVPSKGNLPASQQSQPPVSHQNQSQQPPPQEQRQEIQFTFADTQNRNIALARPIKTPQLQAPNSNANLNQNNMKEYKESLHPPAISISQMNRQSPNNALVSFTNACANSKIINNISDSADKSTNNNGGTKMNLPAISTSSLDENGNLEPTTTTSSGNSNSVPQTGTTTSSLAANSLRLSQPYDTLLRSPTKAFHITAMEAYTPERGSANRARSPLHSNSNNTNNNGANNSNLQTSGMENKQTGLVLDSNVLKSMESNNDNRRLTPSTSKSQNVKSSPGVWNLLQFSSTNNTPAADSGGNKRGFSINPDIKAKENENATSEKDSDSNSNDLETKDINSSPLKNQGGSTANAKELILDTDGAKISIINN
As to B4, in test [6], the binding result is listed as “binds”.

B5: Dig2/Rst2 (protein, Saccharomyces cerevisiae, UniProt Q03373 1-323, looked up)
chain: MNKEEQEDPQQEQISTVQENDPRNLQQLGMLLVSPGLDEDRLSEKMISKIKKSRDIEKNQKLLISRLSQKEEDHSGKPPTITTSPAEKTVPFKSLNHSLKRKRVPPALNFSDIQASSHLHGSKSAPPNITRFPQHKNSLRVRYMGRMAPTNQDYHPSVANSYMTATYPYPYTGLPPVPCYPYSSTPTQTHAYEGYYSPMYPGPLYNNGIIPADYHAKRKKLAGRSPHLEDLTSRKRTFVSKHHNGDPIISKTDEDIECSVTKNSLSEGASLNDDADDDNDKERIIIGEISLYDDVFKFEVRDDKNDYMKACETIWTEWHNLKK
As to B5, the binding result in test [7] is on record as “binds”.

B6: Rfc2 (protein, Saccharomyces cerevisiae, UniProt P40348 1-353, looked up)
chain: MFEGFGPNKKRKISKLAAEQSLAQQPWVEKYRPKNLDEVTAQDHAVTVLKKTLKSANLPHMLFYGPPGTGKTSTILALTKELYGPDLMKSRILELNASDERGISIVREKVKNFARLTVSKPSKHDLENYPCPPYKIIILDEADSMTADAQSALRRTMETYSGVTRFCLICNYVTRIIDPLASRCSKFRFKALDASNAIDRLRFISEQENVKCDDGVLERILDISAGDLRRGITLLQSASKGAQYLGDGKNITSTQVEELAGVVPHDILIEIVEKVKSGDFDEIKKYVNTFMKSGWSAASVVNQLHEYYITNDNFDTNFKNQISWLLFTTDSRLNNGTNEHIQLLNLLVKISQL
As to B6, the binding result in test [8], in test [2], in [9] and in test [4] was “binds” throughout.
